We go through 2 compounds from US20180062087A1, “Organic Compound, Organic Semiconductor Material, Organic Thin Film And Method For Producing The Same, Organic Semiconductor Composition, And Organic Semiconductor Device” (Nippon Kayaku Kabushiki Kaisha, priority 2015, published 2018).

The data set in a line: Evaluation of organic transistor characteristics (spin-coated top-contact bottom-gate transistor). The conditions noted are these: for Applicability to the solution process: film formation by spin coating at 25° C.; for Threshold voltage / Hole mobility: organic thin film spin coated at 25° C.; for Threshold voltage / Hole mobility / On/off ratio: drain voltage −30V, gate voltage +20V to −80V; for Hole mobility: calculated from Formula (a); for On/off ratio: ratio of ON-current to OFF-current. The method, then: Using the solutions containing Organic compounds 1, 2, 5, and 6 which were obtained in Example 11, organic thin films were formed on n-doped silicon wafers each having a SiO2 thermal oxide film, at 25° C. by spin coating. On each of the organic thin films, Au was vacuum deposited using a shadow mask to give a source electrode and a drain electrode. For these organic transistors, the channel length was set at 50 μm, and the channel width was set at 2.5 mm. In the organic transistors of these Examples, each being composed of the n-doped silicon wafer having a SiO2 thermal oxide film, the SiO2 thermal oxide film served as the insulator layer (4), and the n-doped silicon wafer served as both the substrate (6) and the gate electrode (5).
The performance of the organic transistor depends on the amount of electric current that flows when an electrical potential is applied between the source electrode and the drain electrode while an electrical potential is kept applied to the gate electrode. Mobility, which is one of the characteristics of the organic transistor, can be determined by measuring the value of the electric current. Mobility can be calculated by Formula (a) which expresses electrical characteristics of carrier seeds generated in the organic semiconductor layer when a gate electrical field is applied to the SiO2 thermal oxide film as the insulator layer.
In this formula, Id represents the saturated source-drain current value, Z represents the channel width, Ci represents the capacitance of the insulator, Vg represents the gate electrical potential, Vt represents the threshold potential, L represents the channel length, and μ represents the mobility to be determined (cm^2/Vs). Ci is determined by the dielectric constant of the SiO2 insulating film. Z and L are determined by the device structure of the organic transistor. Id and Vg are determined when the value of the electric current of the organic transistor is measured. Vt is obtained from Id and Vg. By assigning these values to Formula (a), mobility at the gate electrical potential of each organic transistor can be calculated.
The hole mobility, the threshold voltage, and the ratio of ON-current to OFF-current (“on/off ratio”) of the organic transistor, calculated from Formula (a), are shown in Table 3.

Turning to `CCCCCCCCc1ccc2sc3c4cc5cc(-c6ccccc6)ccc5cc4sc3c2c1` [Organic compound 5], the “Applicability to the solution process” value is “applicable to the solution process”, the Threshold voltage is on record as −4.8 V, the Hole mobility is 2.58 cm^2/Vs and the On/off ratio is 10^8.
The like results for `CCCCCCCCCCc1ccc2cc3sc4c5cc(-c6ccccc6)ccc5sc4c3cc2c1` [Organic compound 6] were, in that order, “applicable to the solution process”, −23 V, 1.97 cm^2/Vs and 10^7.
